The supplement of paper PMC12067093, “Discovery and optimisation of a covalent ligand for TRIM25 and its application to targeted protein ubiquitination” (Chemical Science, 2025)
The other results are listed elsewhere or left out.

Chains of the proteins cited; added tags and fusions are not shown. Lines headed by an entry give the natural chain unless they say otherwise; changes in a name come on top.
UniProt P32321: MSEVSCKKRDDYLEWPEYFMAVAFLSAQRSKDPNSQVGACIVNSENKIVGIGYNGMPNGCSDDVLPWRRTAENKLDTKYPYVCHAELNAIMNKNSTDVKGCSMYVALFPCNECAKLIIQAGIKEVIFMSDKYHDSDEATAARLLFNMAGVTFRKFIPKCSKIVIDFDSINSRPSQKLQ
UniProt Q9UBR2: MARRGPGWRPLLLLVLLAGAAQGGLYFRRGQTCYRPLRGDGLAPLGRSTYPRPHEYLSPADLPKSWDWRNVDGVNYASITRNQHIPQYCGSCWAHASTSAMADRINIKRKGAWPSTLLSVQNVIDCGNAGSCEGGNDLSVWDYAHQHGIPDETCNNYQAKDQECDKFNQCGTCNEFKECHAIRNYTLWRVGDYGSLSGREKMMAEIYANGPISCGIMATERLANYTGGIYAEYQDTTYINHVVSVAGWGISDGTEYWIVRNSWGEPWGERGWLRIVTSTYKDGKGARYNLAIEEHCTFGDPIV
UniProt Q58WW2: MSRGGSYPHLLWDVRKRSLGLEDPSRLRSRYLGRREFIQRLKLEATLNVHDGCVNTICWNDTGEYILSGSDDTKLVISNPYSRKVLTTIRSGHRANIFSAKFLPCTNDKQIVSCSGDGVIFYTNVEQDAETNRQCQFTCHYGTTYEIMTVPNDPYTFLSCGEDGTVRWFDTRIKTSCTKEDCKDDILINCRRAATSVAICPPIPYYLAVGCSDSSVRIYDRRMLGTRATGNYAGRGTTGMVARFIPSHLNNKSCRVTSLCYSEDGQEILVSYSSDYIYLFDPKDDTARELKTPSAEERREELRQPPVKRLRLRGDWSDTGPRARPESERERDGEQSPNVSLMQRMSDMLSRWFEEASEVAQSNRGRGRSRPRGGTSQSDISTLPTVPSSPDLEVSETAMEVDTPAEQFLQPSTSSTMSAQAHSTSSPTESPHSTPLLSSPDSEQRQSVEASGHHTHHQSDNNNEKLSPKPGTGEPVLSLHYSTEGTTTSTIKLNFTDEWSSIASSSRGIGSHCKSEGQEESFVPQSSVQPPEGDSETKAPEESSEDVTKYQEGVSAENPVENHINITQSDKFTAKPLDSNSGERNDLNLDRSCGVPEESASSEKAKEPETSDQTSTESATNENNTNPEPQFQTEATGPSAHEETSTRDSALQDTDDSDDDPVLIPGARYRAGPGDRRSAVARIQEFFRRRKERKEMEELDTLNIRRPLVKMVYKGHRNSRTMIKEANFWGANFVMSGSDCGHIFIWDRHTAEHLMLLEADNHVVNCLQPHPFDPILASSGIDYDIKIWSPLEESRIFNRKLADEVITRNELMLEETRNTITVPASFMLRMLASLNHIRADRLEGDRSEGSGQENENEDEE
UniProt P25774, whole entry, looked up: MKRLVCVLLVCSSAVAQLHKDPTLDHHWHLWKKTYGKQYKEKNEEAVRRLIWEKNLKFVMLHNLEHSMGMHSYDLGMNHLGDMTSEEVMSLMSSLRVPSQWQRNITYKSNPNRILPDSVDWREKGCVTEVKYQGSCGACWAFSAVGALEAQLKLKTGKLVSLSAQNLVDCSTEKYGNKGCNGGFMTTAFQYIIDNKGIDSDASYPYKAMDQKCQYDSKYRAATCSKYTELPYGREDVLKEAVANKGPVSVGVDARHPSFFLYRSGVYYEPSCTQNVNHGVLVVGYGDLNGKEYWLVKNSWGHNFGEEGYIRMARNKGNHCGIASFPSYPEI
UniProt Q8TB03: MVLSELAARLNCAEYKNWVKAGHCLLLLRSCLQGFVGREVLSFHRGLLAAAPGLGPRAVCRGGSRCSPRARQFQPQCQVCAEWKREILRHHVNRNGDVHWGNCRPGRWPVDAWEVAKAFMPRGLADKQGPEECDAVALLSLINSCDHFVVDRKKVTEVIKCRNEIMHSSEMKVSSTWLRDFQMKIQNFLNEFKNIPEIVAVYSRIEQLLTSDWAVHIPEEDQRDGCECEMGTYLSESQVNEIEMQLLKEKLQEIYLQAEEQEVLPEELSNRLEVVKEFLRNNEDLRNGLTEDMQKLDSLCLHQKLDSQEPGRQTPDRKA
UniProt Q9P2B4: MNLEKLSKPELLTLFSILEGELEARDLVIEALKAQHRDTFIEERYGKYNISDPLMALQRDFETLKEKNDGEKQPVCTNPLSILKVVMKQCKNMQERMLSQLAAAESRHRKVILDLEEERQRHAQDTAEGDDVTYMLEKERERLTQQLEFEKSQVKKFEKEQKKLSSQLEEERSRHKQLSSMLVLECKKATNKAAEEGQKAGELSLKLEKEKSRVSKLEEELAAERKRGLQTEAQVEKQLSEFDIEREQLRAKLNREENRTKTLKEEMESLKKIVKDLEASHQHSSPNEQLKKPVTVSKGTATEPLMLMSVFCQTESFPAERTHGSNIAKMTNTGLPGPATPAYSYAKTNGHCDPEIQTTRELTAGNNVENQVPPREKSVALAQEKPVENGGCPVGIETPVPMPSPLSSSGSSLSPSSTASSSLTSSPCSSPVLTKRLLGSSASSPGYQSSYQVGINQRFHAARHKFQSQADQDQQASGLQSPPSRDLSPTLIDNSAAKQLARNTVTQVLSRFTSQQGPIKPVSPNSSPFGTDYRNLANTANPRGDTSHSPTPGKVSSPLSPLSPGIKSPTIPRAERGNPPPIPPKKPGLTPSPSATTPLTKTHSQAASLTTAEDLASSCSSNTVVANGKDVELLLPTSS
UniProt Q5VWQ8: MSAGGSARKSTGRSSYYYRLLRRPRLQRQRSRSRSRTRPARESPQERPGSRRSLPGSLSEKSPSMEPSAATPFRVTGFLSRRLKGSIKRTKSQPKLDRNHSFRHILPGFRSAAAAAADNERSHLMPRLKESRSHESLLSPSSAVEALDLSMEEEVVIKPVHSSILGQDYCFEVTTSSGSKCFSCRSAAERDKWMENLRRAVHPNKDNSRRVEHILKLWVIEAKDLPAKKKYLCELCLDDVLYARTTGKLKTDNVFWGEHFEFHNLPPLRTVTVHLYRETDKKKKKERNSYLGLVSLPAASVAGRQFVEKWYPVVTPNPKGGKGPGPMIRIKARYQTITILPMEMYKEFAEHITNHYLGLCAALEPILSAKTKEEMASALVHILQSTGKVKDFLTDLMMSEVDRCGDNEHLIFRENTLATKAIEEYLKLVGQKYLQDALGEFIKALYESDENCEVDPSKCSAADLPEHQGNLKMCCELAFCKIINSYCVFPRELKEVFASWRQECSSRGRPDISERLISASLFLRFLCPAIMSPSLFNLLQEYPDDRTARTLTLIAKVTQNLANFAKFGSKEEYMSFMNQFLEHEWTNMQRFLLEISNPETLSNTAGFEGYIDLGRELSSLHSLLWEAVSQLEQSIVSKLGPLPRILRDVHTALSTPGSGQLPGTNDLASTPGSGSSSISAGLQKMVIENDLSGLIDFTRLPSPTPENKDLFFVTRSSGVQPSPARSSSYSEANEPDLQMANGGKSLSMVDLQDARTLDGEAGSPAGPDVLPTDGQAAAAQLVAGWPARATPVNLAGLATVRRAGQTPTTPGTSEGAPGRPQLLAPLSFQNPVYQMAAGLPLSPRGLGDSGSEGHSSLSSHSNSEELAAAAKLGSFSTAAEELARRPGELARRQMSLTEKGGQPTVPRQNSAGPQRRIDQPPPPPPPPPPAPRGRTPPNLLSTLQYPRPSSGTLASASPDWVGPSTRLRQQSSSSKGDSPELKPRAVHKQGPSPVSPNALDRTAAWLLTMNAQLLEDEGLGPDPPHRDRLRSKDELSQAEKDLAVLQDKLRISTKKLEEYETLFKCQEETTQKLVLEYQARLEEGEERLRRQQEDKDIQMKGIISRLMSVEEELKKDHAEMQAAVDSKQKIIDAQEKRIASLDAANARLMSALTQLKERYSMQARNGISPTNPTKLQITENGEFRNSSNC
UniProt P53634: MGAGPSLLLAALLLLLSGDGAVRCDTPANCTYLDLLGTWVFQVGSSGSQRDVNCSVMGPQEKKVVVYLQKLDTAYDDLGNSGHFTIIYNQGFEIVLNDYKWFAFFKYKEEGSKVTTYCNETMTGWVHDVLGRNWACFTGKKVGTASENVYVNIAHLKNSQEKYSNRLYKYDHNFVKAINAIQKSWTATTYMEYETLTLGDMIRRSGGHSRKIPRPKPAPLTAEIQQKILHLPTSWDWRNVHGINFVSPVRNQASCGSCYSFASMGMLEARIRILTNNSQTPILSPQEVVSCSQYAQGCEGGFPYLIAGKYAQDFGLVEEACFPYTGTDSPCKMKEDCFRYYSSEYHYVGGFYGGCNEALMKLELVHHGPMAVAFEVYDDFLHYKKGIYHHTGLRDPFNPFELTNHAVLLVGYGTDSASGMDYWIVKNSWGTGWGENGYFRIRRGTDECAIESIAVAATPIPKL
UniProt Q9NPI6: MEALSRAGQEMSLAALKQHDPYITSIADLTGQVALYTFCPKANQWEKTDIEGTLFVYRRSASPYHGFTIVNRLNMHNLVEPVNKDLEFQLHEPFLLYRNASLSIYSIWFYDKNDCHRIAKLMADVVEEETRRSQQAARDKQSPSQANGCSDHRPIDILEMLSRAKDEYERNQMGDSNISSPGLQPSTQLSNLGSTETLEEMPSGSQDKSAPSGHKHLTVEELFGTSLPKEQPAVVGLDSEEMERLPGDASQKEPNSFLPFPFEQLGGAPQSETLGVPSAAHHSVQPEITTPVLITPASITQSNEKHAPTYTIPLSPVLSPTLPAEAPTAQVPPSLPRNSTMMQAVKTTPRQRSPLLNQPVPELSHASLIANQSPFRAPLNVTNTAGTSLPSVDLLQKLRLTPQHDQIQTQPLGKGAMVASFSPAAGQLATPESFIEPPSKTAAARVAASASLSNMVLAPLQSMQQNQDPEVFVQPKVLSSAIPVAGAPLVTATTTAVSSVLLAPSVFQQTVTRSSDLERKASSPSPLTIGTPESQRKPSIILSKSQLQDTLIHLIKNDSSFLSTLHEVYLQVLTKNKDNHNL
UniProt P00387: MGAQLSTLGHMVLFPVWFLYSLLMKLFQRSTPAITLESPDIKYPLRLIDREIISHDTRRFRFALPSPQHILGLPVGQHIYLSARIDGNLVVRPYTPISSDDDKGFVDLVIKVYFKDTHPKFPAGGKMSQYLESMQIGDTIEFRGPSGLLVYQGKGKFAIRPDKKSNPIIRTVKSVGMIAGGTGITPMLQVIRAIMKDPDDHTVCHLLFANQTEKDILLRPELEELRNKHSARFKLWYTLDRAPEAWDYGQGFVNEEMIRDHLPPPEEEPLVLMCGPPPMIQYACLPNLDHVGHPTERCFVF
UniProt Q13620, whole entry, looked up: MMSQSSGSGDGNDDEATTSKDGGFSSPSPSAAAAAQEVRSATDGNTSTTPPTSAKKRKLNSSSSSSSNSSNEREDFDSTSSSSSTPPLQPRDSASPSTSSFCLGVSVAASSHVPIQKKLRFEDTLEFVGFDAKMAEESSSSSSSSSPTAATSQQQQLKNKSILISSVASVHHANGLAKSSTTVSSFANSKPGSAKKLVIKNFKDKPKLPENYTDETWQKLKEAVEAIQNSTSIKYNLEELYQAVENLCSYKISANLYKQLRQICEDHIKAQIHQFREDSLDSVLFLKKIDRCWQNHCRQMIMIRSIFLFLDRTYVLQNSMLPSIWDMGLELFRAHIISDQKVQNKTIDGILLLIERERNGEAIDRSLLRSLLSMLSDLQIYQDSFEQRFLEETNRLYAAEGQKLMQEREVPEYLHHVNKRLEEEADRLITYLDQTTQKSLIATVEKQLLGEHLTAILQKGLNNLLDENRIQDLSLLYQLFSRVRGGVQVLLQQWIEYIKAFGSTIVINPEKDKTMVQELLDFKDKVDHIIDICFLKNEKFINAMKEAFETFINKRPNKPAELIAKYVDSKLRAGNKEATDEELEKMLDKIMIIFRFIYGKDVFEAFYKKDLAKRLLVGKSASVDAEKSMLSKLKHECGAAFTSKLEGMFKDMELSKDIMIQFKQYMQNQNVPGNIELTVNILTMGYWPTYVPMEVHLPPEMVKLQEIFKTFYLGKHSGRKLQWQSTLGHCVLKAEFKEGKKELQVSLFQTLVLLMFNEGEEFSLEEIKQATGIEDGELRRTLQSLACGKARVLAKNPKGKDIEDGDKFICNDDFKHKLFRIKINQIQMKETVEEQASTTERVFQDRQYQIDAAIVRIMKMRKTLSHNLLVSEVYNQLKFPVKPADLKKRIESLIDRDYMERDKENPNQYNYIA

Compound: Cc1cc(ccc1-c1ccccc1)C(=O)N1CCCN(CC1)C(=O)CCl [compound 10]
Experiment: probe-labelled cysteine peptide fold change vs DMSO (competition) (log2 fold change); higher = less target engagement (more negative = stronger competition)
Details: THP-1, incubation time: 4 h
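Also: competitive profiling in live THP-1 cells: cysteine peptides tagged with an iodoacetamide desthiobiotin (IA-DTB) probe, intensity after compound treatment relative to DMSO-treated cells.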

Target	probe-labelled cysteine peptide fold change (10 µM)	probe-labelled cysteine peptide fold change (50 µM)
DCTD_P32321_83_YPYVCHAELNAIMNK (UniProt P32321)	0.104	0.121
CTSZ_Q9UBR2_92_NQHIPQYCGSCWAHASTSAMADR (UniProt Q9UBR2)	0.19	-0.0928
DCAF6_Q58WW2_513_GIGSHCK (UniProt Q58WW2)	-0.205	-0.361
CTR9_Q6PD62_231_CVGALVGLAVLELNNK (UniProt Q6PD62)	-0.0314	0.0276
CTSS_P25774_224_AATCSK (UniProt P25774)	-0.202	-0.328
CXorf38_Q8TB03_133+145_QGPEECDAVALLSLINSCDHFVVDRK (UniProt Q8TB03)	-0.152	-0.411
CTSB_P07858_105+108_EIRDQGSCGSCWAFGAVEAISDR (UniProt P07858)	-0.142	-0.642
CTTNBP2NL_Q9P2B4_186_QLSSMLVLECK (UniProt Q9P2B4)	0.272	0.432
CYLD_Q9NQC7_252_VGETIESGTVIFCDVLPGK (UniProt Q9NQC7)	-0.152	0.0402
DAB2IP_Q5VWQ8_487_IINSYCVFPR (UniProt Q5VWQ8)	-0.0135	-0.164
CTSC_P53634_136_NWACFTGK (UniProt P53634)	-0.212	0.125
DCP1A_Q9NPI6_39_QHDPYITSIADLTGQVALYTFCPK (UniProt Q9NPI6)	-0.0807	-0.284
CYB5R3_P00387_204_AIMKDPDDHTVCHLLFANQTEK (UniProt P00387)	-0.00544	-0.205
CUL4B_Q13620_810_FICNDDFK (UniProt Q13620)	-0.198	-0.0209

Rewritten with bars between the fields: entries from further up
Target | probe-labelled cysteine peptide fold change (10 µM) | probe-labelled cysteine peptide fold change (50 µM)
DCP1A_Q9NPI6_39_QHDPYITSIADLTGQVALYTFCPK (UniProt Q9NPI6) | -0.0807 | -0.284
CYB5R3_P00387_204_AIMKDPDDHTVCHLLFANQTEK (UniProt P00387) | -0.00544 | -0.205
CUL4B_Q13620_810_FICNDDFK (UniProt Q13620) | -0.198 | -0.0209
